Results on 1 molecule are retold here after PMC10319809, “Chronic UCN2 treatment desensitizes CRHR2 and improves insulin sensitivity” (Nature Communications, 2023).

In this assay the target is T1, HA-tagged CRHR2a (corticotropin-releasing hormone receptor 2, alpha isoform) (human) (UniProt Q13324).
T1 sequence: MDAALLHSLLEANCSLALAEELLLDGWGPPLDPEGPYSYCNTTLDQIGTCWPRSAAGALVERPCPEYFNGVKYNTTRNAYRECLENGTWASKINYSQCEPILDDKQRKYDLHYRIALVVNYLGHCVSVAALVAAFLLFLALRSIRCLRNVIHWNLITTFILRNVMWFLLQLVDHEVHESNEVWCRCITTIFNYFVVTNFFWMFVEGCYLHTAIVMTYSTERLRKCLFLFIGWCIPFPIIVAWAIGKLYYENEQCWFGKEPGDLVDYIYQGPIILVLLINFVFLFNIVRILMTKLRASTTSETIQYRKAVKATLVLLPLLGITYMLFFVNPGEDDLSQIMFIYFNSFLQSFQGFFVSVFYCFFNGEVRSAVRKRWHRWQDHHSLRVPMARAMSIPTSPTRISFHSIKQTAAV
The experiment in a line: live-cell fluorescence microscopy of a labelled ligand on cells; FAM-UCN2 added to HEK293 cells transiently transfected with HA-tagged CRHR2a, imaged over 24 h; controls were cells not expressing CRHR2 and CRHR2-expressing cells treated with saline; only the binder purified.

No constants are given. Whether binding was seen depends on the method and setting. Some entries that bind do so weakly or less than the wild type. Sequences can lack the tags named with a protein.

Turning to IVLSLDVPIGLLQILLEQARARAAREQATTNARILARVGHC (peptide, UniProt Q96RP3 72-112, FAM fluorescent label, position not stated) [Fluorescently labeled UCN2 (FAM-UCN2)], the binding entry is reported as “binds”.
